Residue numbers refer to the chain shown, from its start. Results are given in words; binding and its absence hold for the method and conditions named. In cells and extracts the contact can be indirect. Some results given as binding are weak or reduced against the parent protein; the word gives no strength. Sequences can lack the tags named with a protein.
Key:
Test in all cases: pull-down
[1] = biological target: T1, MlaA-His (wild type, from pET23/42) (E. coli) (UniProt P76506)
T1 sequence: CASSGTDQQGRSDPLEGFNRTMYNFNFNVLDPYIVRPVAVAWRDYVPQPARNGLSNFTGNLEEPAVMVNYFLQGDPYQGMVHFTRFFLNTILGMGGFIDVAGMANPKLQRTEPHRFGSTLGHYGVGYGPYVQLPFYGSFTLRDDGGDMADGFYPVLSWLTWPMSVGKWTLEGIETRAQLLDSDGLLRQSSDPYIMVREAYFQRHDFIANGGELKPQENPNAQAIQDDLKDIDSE

[2] = biological target: T2, MlaA L1 mutant (Y^147VQL→4A)-His (E. coli) (UniProt P76506)
T2 sequence: T1 sequence with Y130A, V131A, Q132A, L133A

[3] = biological target: T3, MlaA 3G3P mutant (G^141VGYG→P^141VPYP)-His (E. coli) (UniProt P76506)
T3 sequence: T1 sequence with G124P, G126P, G128P

[4] = biological target: T4, MlaA 3G3P/3D3R combination mutant-His (E. coli) (UniProt P76506)
T4 sequence: T1 sequence with G124P, G126P, G128P, D143R, D144R, D147R

[5] = biological target: T5, MlaA L2 mutant (F^152YGSF→5A)-His (E. coli) (UniProt P76506)
T5 sequence: T1 sequence with F135A, Y136A, G137A, S138A, F139A

[6] = biological target: T6, MlaA_(3D3R)-His (E. coli) (UniProt P76506)
T6 sequence: T1 sequence with D143R, D144R, D147R

Measured: binding

B1: OmpC (wild type, from the chromosomal locus) (protein, UniProt P06996 22-367)
chain: AEVYNKDGNKLDLYGKVDGLHYFSDNKDVDGDQTYMRLGFKGETQVTDQLTGYGQWEYQIQGNSAENENNSWTRVAFAGLKFQDVGSFDYGRNYGVVYDVTSWTDVLPEFGGDTYGSDNFMQQRGNGFATYRNTDFFGLVDGLNFAVQYQGKNGNPSGEGFTSGVTNNGRDALRQNGDGVGGSITYDYEGFGIGGAISSSKRTDAQNTAAYIGNGDRAETYTGGLKYDANNIYLAAQYTQTYNATRVGSLGWANKAQNFEAVAQYQFDFGLRPSLAYLQSKGKNLGRGYDDEDILKYVDVGATYYFNKNMSTYVDYKINLLDDNQFTRDAGINTDNIVALGLVYQF
binds: all assays above

Reference: publication doi:10.1101/192500 (bioRxiv, 2018)
